# Some of the results follow.
# Tests used:
# Experiment in all cases: glycan array binding signal (z-score within array); higher = stronger binding
# Conditions in all cases: glycan notation: IUPAC condensed, linker removed
# [1] = target: Fuc(a1-2)Gal(b1-4)GlcNAc(b1-3)Gal(b1-4)GlcNAc(b1-3)Gal(b1-4)GlcNAc
# Outline: (§1)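 The binding signal is a Z-score computed within each array and averaged over linkers. Arrays of the same protein sequence at different concentrations or buffers were also averaged together. Data originate from 3228 arrays in the Consortium for Functional Glycomics database, kept only where the protein sequence was available.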
# [2] = target: Fuc(a1-2)Gal(b1-4)GlcNAc(b1-3)GalNAc
# Outline: as §1
# [3] = target: Fuc(a1-2)Gal(b1-4)GlcNAc(b1-3)[Fuc(a1-2)Gal(b1-4)GlcNAc(b1-6)]GalNAc
# Outline: as §1
# [4] = target: Fuc(a1-2)Gal(b1-4)GlcNAc(b1-3)[Fuc(a1-3)[Gal(b1-4)]GlcNAc(b1-6)]Gal(b1-4)Glc
# Outline: as §1
# [5] = target: Fuc(a1-2)Gal(b1-4)GlcNAc(b1-6)GalNAc
# Outline: as §1
# [6] = target: Fuc(a1-2)Gal(b1-4)GlcNAc6S
# Outline: as §1
# [7] = target: Fuc(a1-2)Gal(b1-4)[Fuc(a1-3)]GlcNAc
# Outline: as §1
# [8] = target: Fuc(a1-2)Gal(b1-4)[Fuc(a1-3)]GlcNAc(b1-2)Man(a1-3)[Fuc(a1-2)Gal(b1-4)[Fuc(a1-3)]GlcNAc(b1-2)Man(a1-6)]Man(b1-4)GlcNAc(b1-4)[Fuc(a1-6)]GlcNAc
# Outline: as §1
# [9] = target: Fuc(a1-2)Gal(b1-4)[Fuc(a1-3)]GlcNAc(b1-2)[Fuc(a1-2)Gal(b1-4)[Fuc(a1-3)]GlcNAc(b1-4)]Man(a1-3)[Fuc(a1-2)Gal(b1-4)[Fuc(a1-3)]GlcNAc(b1-2)Man(a1-6)]Man(b1-4)GlcNAc(b1-4)GlcNAc
# Outline: as §1
# [10] = target: Fuc(a1-2)Gal(b1-4)[Fuc(a1-3)]GlcNAc(b1-3)Gal(b1-4)[Fuc(a1-3)]GlcNAc
# Outline: as §1
# [11] = target: Fuc(a1-2)Gal(b1-4)[Fuc(a1-3)]GlcNAc(b1-3)Gal(b1-4)[Fuc(a1-3)]GlcNAc(b1-3)Gal(b1-4)[Fuc(a1-3)]GlcNAc
# Outline: as §1
# [12] = target: Fuc(a1-2)Gal(b1-4)[Fuc(a1-3)]GlcNAc(b1-3)GalNAc
# Outline: as §1
# [13] = target: Fuc(a1-2)Gal(b1-4)[Fuc(a1-3)]GlcNAc(b1-3)[Neu5Ac(a2-6)Gal(b1-4)GlcNAc(b1-6)]Gal(b1-4)Glc
# Outline: as §1
# [14] = target: Fuc(a1-2)Gal3S(b1-4)GlcNAc
# Outline: as §1
# [15] = target: Fuc(a1-2)Gal6S(b1-3)GlcNAc
# Outline: as §1
# [16] = target: Fuc(a1-2)Gal6S(b1-3)GlcNAc6S
# Outline: as §1
# Fuc(a1-2)Gal6S(b1-4)Glc = target: Fuc(a1-2)Gal6S(b1-4)Glc
# Outline: as §1
# [17] = target: Fuc(a1-2)Gal6S(b1-4)Glc6S
# Outline: as §1
# Fuc(a1-2)[Gal(a1-3)]Gal = target: Fuc(a1-2)[Gal(a1-3)]Gal
# Outline: as §1
# [18] = target: Fuc(a1-2)[Gal(a1-3)]Gal(b1-3)GalNAc
# Outline: as §1
# [19] = target: Fuc(a1-2)[Gal(a1-3)]Gal(b1-3)GalNAc(b1-3)Gal(a1-4)Gal(b1-4)Glc
# Outline: as §1
# [20] = target: Fuc(a1-2)[Gal(a1-3)]Gal(b1-3)GlcNAc
# Outline: as §1
# [21] = target: Fuc(a1-2)[Gal(a1-3)]Gal(b1-3)GlcNAc(b1-2)Man(a1-3)[Fuc(a1-2)[Gal(a1-3)]Gal(b1-3)GlcNAc(b1-2)Man(a1-6)]Man(b1-4)GlcNAc(b1-4)GlcNAc
# Outline: as §1
# [22] = target: Fuc(a1-2)[Gal(a1-3)]Gal(b1-3)GlcNAc(b1-2)Man(a1-3)[Fuc(a1-2)[Gal(a1-3)]Gal(b1-3)GlcNAc(b1-2)Man(a1-6)]Man(b1-4)GlcNAc(b1-4)[Fuc(a1-6)]GlcNAc
# Outline: as §1
# [23] = target: Fuc(a1-2)[Gal(a1-3)]Gal(b1-3)GlcNAc(b1-3)GalNAc
# Outline: as §1
# [24] = target: Fuc(a1-2)[Gal(a1-3)]Gal(b1-3)GlcNAc(b1-6)GalNAc
# Outline: as §1
# [25] = target: Fuc(a1-2)[Gal(a1-3)]Gal(b1-4)Glc
# Outline: as §1
# [26] = target: Fuc(a1-2)[Gal(a1-3)]Gal(b1-4)GlcNAc
# Outline: as §1
# [27] = target: Fuc(a1-2)[Gal(a1-3)]Gal(b1-4)GlcNAc(b1-2)Man
# Outline: as §1
# [28] = target: Fuc(a1-2)[Gal(a1-3)]Gal(b1-4)GlcNAc(b1-2)Man(a1-3)[Fuc(a1-2)[Gal(a1-3)]Gal(b1-4)GlcNAc(b1-2)Man(a1-6)]Man(b1-4)GlcNAc(b1-4)GlcNAc
# Outline: as §1
# [29] = target: Fuc(a1-2)[Gal(a1-3)]Gal(b1-4)GlcNAc(b1-2)Man(a1-3)[Fuc(a1-2)[Gal(a1-3)]Gal(b1-4)GlcNAc(b1-2)Man(a1-6)]Man(b1-4)GlcNAc(b1-4)[Fuc(a1-6)]GlcNAc
# Outline: as §1
# [30] = target: Fuc(a1-2)[Gal(a1-3)]Gal(b1-4)GlcNAc(b1-3)GalNAc
# Outline: as §1
# [31] = target: Fuc(a1-2)[Gal(a1-3)]Gal(b1-4)GlcNAc(b1-3)[Fuc(a1-2)[Gal(a1-3)]Gal(b1-4)GlcNAc(b1-6)]GalNAc
# Outline: as §1
# [32] = target: Fuc(a1-2)[Gal(a1-3)]Gal(b1-4)GlcNAc(b1-6)GalNAc
# Outline: as §1
# [33] = target: Fuc(a1-2)[Gal(a1-3)]Gal(b1-4)[Fuc(a1-3)]Glc
# Outline: as §1
# [34] = target: Fuc(a1-2)[Gal(a1-3)]Gal(b1-4)[Fuc(a1-3)]GlcNAc
# Outline: as §1
# [35] = target: Fuc(a1-2)[Gal(a1-3)]Gal(b1-4)[Fuc(a1-3)]GlcNAc(b1-3)GalNAc
# Outline: as §1
binder,measurement,setting,value
PX14375A-pdi-503-28-503 (Parabacteroides distasonis) (protein) PLGSPEAGDISEERQAFLRLTAVYSVMKDFRYTWSMQCFGDVLSNDATYSGSSNDAQTFTLLENYQYQADHTEILNKYRYSYQCINKANLFIRDMEMADDALFSKYDKEQMIGEAKFIRAYTYFELVKTFGGVPCYTGVLDLDHERLGRASVEEIYSVIEQDLNDAVSVLPKKSEVANYESSYAGRITKGAAIAMQTRIYLYEKKYDEVKKAFEKFQNECGGEYSLVAPEDYTWQFSLDGEHCSSSILEVNMYNSSTQSSYNVNNGNRHVLMSMPRNMTIGFGCAQPTQALADAYDAEGDVIRKKTTLLSTEEAIEIETAAKGDVAPVTDDRTGWYNRKLYLAPGQREENRGNNQPTNLRLIRLAEVYLNYAEACYFSGDIANAQKYLNEVRSHVNLAPKNHTGSQLFEDIMNERHLEFGMEGFRFFDVVRVGWGEKVFNGTKKAEFGAKTPFSAGAEVLPIPQTEIDISDGLITN,glycan array binding signal (z-score),[1],-0.494
same,glycan array binding signal (z-score),[2],0.129
same,glycan array binding signal (z-score),[3],0.433
same,glycan array binding signal (z-score),[4],-0.332
same,glycan array binding signal (z-score),[5],0.828
same,glycan array binding signal (z-score),[6],0.079
same,glycan array binding signal (z-score),[7],-0.378
same,glycan array binding signal (z-score),[8],-0.25
same,glycan array binding signal (z-score),[9],0.5
same,glycan array binding signal (z-score),[10],-0.222
same,glycan array binding signal (z-score),[11],0.506
same,glycan array binding signal (z-score),[12],-0.279
same,glycan array binding signal (z-score),[13],-0.353
same,glycan array binding signal (z-score),[14],0.279
same,glycan array binding signal (z-score),[15],0.183
same,glycan array binding signal (z-score),[16],0.686
same,glycan array binding signal (z-score),Fuc(a1-2)Gal6S(b1-4)Glc,-0.427
same,glycan array binding signal (z-score),[17],0.293
same,glycan array binding signal (z-score),Fuc(a1-2)[Gal(a1-3)]Gal,0.139
same,glycan array binding signal (z-score),[18],0.34
same,glycan array binding signal (z-score),[19],-0.221
same,glycan array binding signal (z-score),[20],-0.302
same,glycan array binding signal (z-score),[21],-0.83
same,glycan array binding signal (z-score),[22],1.43
same,glycan array binding signal (z-score),[23],-0.75
same,glycan array binding signal (z-score),[24],0.169
same,glycan array binding signal (z-score),[25],0.347
same,glycan array binding signal (z-score),[26],0.356
same,glycan array binding signal (z-score),[27],-0.178
same,glycan array binding signal (z-score),[28],-0.223
same,glycan array binding signal (z-score),[29],-0.461
same,glycan array binding signal (z-score),[30],0.796
same,glycan array binding signal (z-score),[31],-0.023
same,glycan array binding signal (z-score),[32],0.501
same,glycan array binding signal (z-score),[33],0.615
same,glycan array binding signal (z-score),[34],-0.077
same,glycan array binding signal (z-score),[35],-0.044

# Looked up one by one from above:
binder,measurement,setting,value
PX14375A-pdi-503-28-503 (Parabacteroides distasonis) (protein) PLGSPEAGDISEERQAFLRLTAVYSVMKDFRYTWSMQCFGDVLSNDATYSGSSNDAQTFTLLENYQYQADHTEILNKYRYSYQCINKANLFIRDMEMADDALFSKYDKEQMIGEAKFIRAYTYFELVKTFGGVPCYTGVLDLDHERLGRASVEEIYSVIEQDLNDAVSVLPKKSEVANYESSYAGRITKGAAIAMQTRIYLYEKKYDEVKKAFEKFQNECGGEYSLVAPEDYTWQFSLDGEHCSSSILEVNMYNSSTQSSYNVNNGNRHVLMSMPRNMTIGFGCAQPTQALADAYDAEGDVIRKKTTLLSTEEAIEIETAAKGDVAPVTDDRTGWYNRKLYLAPGQREENRGNNQPTNLRLIRLAEVYLNYAEACYFSGDIANAQKYLNEVRSHVNLAPKNHTGSQLFEDIMNERHLEFGMEGFRFFDVVRVGWGEKVFNGTKKAEFGAKTPFSAGAEVLPIPQTEIDISDGLITN,glycan array binding signal (z-score),[16],0.686
same,glycan array binding signal (z-score),[28],-0.223

# Reference: the supplement of paper PMC8728848
